Experimental data published in patent US3971736 (dated 1976).

Assay: general procedure: Boc solid-phase peptide synthesis; styrene-2%-divinylbenzene copolymer
Settings: whole synthesis, HBr or TFA salt

Substance: Pyroglu-DPhe-Pro-Phe-Phe-Val-DTrpOCH3
- crude mass (scale 6.3 mmoles): 4.06 g

Substance: t-Boc-DPhe-Pro-Phe-Phe-Val-DLeuNHNH2
- crude mass (scale 267 μmoles): 0.215 g
